Data: article PMC7710684
No constants are given. Whether binding was seen depends on the method and setting.

Protein sequences, listed by entry. Tags and fused reporters are not part of them. Residues count along the entry.
UniProt P02769, residues 25-607: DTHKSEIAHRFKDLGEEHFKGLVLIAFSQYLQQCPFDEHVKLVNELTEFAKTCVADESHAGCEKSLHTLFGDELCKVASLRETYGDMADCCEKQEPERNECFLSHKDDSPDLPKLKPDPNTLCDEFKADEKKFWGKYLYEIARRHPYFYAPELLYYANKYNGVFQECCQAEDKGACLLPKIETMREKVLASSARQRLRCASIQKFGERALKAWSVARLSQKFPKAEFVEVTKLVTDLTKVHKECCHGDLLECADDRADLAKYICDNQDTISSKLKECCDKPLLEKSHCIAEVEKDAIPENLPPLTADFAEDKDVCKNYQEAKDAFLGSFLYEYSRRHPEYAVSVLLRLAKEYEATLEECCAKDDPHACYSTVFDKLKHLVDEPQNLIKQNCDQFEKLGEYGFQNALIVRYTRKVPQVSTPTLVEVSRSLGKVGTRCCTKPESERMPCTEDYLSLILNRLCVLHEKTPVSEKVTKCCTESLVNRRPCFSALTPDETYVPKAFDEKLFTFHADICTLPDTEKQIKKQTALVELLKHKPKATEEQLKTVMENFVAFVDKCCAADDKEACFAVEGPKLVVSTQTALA

How the values were obtained:
[1] = target: BSA (bovine (from the name BSA)) (UniProt P02769); experiment: ELISA; human C1q (0-1.5 µg/ml) or BSA coated in carbonate buffer pH 9.6; 40 nM His-tagged rTsCRT or fragment in 20 mM Tris-HCl pH 7.4, 50 mM NaCl, 1 mM CaCl2, 1 h room temperature; anti-His detection; both purified
[2] = target: BSA (bovine (from the name BSA)) (UniProt P02769); experiment: far-Western, overlay or dot blot; 5 µg human C1q and 5 µg BSA on 12% SDS-PAGE, on nitrocellulose; 5 µg/ml rTsCRT or fragment in binding buffer with 1 mM CaCl2, 37°C, 2 h; anti-His detection; both purified

In the case of “recombinant full-length Trichinella spiralis calreticulin (TsCRT, 22-413 aa) (from UniProt A0ABR3K4E4)”, the binding [1] is reported as “no binding (tested: 40 nM)” and the binding [2] is reported as “no binding (tested: 5 µg/ml)”.
